The results in this text go back to publication PMC11564821.

No constants are given. Whether binding was seen depends on the method and setting. In cells and extracts the contact can be indirect. Sequences can lack the tags named with a protein.

The target of one experiment is T1, Myc-MDM4 (UniProt O15151).
T1 sequence: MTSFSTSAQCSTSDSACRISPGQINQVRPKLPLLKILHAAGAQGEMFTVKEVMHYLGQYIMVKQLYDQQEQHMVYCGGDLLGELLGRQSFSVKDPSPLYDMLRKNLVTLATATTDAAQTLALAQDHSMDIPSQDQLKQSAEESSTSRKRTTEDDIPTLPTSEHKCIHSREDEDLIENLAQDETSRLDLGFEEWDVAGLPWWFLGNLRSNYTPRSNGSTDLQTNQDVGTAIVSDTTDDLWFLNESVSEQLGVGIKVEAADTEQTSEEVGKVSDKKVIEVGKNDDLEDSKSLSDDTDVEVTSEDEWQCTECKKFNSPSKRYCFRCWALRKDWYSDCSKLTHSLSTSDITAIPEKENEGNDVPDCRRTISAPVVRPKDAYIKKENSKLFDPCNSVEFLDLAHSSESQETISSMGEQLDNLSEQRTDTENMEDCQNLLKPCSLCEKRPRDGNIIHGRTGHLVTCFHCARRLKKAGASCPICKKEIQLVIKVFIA
The experiment in a line: co-IP; Myc-tagged MDM4 or Flag-tagged GPX4 immunoprecipitated, the other detected by immunoblot (Fig. 6A, B); cell line not stated; lysate supernatant with beads at 4 °C overnight, five washes with lysis buffer. Background: A western blot detects proteins with antibodies after separation by electrophoresis.

A further experiment has as its target Flag-GPX4. The description is as above.

Turning to Flag-GPX4, the binding result with Myc-MDM4 was “no binding”.

B1: Myc-MDM4 (protein, UniProt O15151 1-490)
chain: T1 sequence
For B1, in the experiment with Flag-GPX4, the binding result was “no binding”.
